No constants are given. Whether binding was seen depends on the method and setting. Some binding calls cover weakened binding; strength is not graded here.
Tests used:
[1] = biological target: human CD8 on human T cells (human) (UniProt P01732); assay: flow cytometry, CD8+ T cells in human PBMCs, 1 h, PE anti-IL12
[2] = biological target: human CD8 on human T cells (human) (UniProt P01732); assay: flow cytometry on human PBMCs, anti-IL12 detection (FIG. 12)

Chains of the proteins cited; added tags and fusions are not shown. Lines headed by an entry give the natural chain unless they say otherwise; changes in a name come on top. Residues count along the entry.
UniProt P01732, residues 22-235: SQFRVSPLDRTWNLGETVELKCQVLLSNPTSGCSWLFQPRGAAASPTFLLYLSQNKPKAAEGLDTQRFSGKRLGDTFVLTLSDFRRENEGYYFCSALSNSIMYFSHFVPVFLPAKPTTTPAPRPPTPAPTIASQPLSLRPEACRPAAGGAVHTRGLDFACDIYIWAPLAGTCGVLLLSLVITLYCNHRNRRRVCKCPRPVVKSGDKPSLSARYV
UniProt P01660: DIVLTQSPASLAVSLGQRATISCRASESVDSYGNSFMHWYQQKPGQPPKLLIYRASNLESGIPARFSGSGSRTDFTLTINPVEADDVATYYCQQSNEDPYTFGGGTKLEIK

binding [1]: binds
binding [2]: binds
Substance: 02A01-IgG-IL12 (LC) (from UniProt P01660 1-111)
